From patent US20130203649A1, “INHIBITORS OF TLR SIGNALING BY TARGETING TIR DOMAIN INTERFACES” (UNIVERSITY OF MARYLAND, BALTIMORE, priority 2012, published 2013)
“Also recorded” adds a separate entry of the source. Not every detail of the peptide structures is certain; ends, links or a residue may be inferred. No end group written: not given here.

Amino acid sequences for entries named in this document (tags omitted). Residues count along the entry.
UniProt Q9QUN7, 25-784: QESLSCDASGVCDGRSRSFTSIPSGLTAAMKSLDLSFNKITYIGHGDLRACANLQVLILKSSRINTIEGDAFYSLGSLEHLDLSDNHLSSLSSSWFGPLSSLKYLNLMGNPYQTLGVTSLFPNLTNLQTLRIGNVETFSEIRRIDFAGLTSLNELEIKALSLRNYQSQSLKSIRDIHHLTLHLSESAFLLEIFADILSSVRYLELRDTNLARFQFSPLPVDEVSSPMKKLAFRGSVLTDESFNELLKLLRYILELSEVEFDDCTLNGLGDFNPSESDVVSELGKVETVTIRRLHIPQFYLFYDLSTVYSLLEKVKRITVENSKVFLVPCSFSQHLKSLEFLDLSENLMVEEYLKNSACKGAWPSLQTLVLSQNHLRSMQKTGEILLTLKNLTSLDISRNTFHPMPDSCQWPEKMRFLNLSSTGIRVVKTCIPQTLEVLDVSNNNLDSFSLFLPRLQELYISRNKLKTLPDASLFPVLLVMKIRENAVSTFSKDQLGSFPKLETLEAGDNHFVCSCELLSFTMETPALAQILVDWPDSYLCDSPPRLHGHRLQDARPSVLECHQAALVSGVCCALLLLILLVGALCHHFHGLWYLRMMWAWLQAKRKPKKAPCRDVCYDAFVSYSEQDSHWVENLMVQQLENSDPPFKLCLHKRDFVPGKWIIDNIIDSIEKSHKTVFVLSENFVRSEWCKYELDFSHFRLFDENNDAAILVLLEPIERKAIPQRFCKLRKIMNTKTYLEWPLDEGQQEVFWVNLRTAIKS

What was measured:
Type in all cases: cell-based
TLR4 = experiment: LPS-induced cytokine mRNA expression in mouse macrophages (real-time RT-PCR); conditions: for RANTES and IL-6 mRNA expression: 5-h incubation with LPS; for LPS-induced (TLR4-mediated) cytokine mRNA expression: 5 or 20 μM peptide 30 min before LPS, 1 or 5 h
Experimental: C57BL/6J mice were obtained from The Jackson Laboratory (Bar Harbor, Me.). Primary peritoneal macrophages were obtained by peritoneal lavage 4 days after intraperitoneal injection (3 ml) of sterile 3% thioglycolate broth. Washed cells were resuspended in RPMI 1640 which contained 2% FBS, 1% penicillin:streptomycin and 2 mM L-glutamine. After plating, cells were incubated overnight at 37° C. and then washed with PBS to remove non-adherent cells. Cells were exposed to peptides 30 min before stimulation with a TLR agonist.
(§1) Total cellular RNA was isolated using Tripure from Roche (San Francisco, Calif.) following manufacture's protocol. RNA was then reverse transcribed using AMV Reverse Transcriptase from Promega (Madison, Wis.) with poly-T priming as per manufacturer's directions. cDNA was then quantified by real-time PCR using Applied Biosystems Fast SYBR Green PCR Master Mix and an ABI Prism 7500HT cycler. Primers used for detection: hypoxanthine phosphoribosyltransferase (HPRT) (forward: […] (SEQ ID NO:51), reverse: […] (SEQ ID NO:52)), TNFα (forward: […] (SEQ ID NO:53), reverse: […] (SEQ ID NO:54)), IL-1β (forward: […] (SEQ ID NO:55), reverse: […] (SEQ ID NO:56)), IFNβ (forward: […] (SEQ ID NO:57), reverse: CTCGGACCACCATCCAGG (SEQ ID NO:58)) and RANTES (forward: […] (SEQ ID NO:59), reverse: […] (SEQ ID NO:60)). The primers were designed using Primer Express 2.0 (Applied Biosystems). Using HPRT as reference, the ΔCt method was used to calculate relative gene expression. One-way ANOVA was preformed, as well as Dunnett's multiple comparison post hoc test with a p≦0.01 selected as the level of significance.
Total RNA was isolated with Nucleospin RNA II kits (Macherey-Nagel, Bethlehem, Pa.), followed by DNase digestion. cDNA was synthesized from 1 μg RNA using Goscript transcriptase (Promega), and subjected to real-time PCR with gene-specific primers for HPRT, TNF-α, IL-1β, IFNβ, and RANTES on H7900 ABI system using Fast SYBR Green master mix (Applied Biosystems, Foster City, Calif.).
To evaluate peptide-inhibitory activities, we first measured LPS-induced cytokine mRNA expression. […] […] Decoy peptide TM4 is derived from the BB loop of TRAM TIR; we previously identified this peptide as an effective TLR4 inhibitor (19).

TLR2/TLR1 heterodimer = molecular target: T1, TLR2/TLR1 heterodimer (Mus musculus, UniProt Q9QUN7); experiment: P3C-induced cytokine mRNA expression in mouse macrophages; conditions: 20 μM peptide; P3C 500 ng/ml, 1 h
T1 construct: endogenous in cells; host or cells: thioglycollate-elicited mouse peritoneal macrophages
Description: as §1, with “One-way ANOVA was preformed, as well as Dunnett's multiple comparison post hoc test with a p≦0.01 selected as the level of significance.” left out
(§2) Because of the role TRAP plays in TLR2 signaling, TIRAP TIR-derived decoy peptide effects on TLR2-induced cytokine mRNA expression were examined. […] To confirm the inhibitory effect of TR3 and TR6 on P3C-induced signaling, IL-6 and TNF-α concentration was measured in macrophage supernatants collected 5 h after stimulation of cells with P3C. […]

TLR2/TLR6 heterodimer = molecular target: T2, TLR2/TLR6 heterodimer (Mus musculus, UniProt Q9QUN7); experiment: P2C-induced cytokine mRNA expression in mouse macrophages; conditions: 20 μM peptide; P2C 50 ng/ml, 1 h
T2 construct: endogenous in cells; host or cells: thioglycollate-elicited mouse peritoneal macrophages
Description: as §1, with “One-way ANOVA was preformed, as well as Dunnett's multiple comparison post hoc test with a p≦0.01 selected as the level of significance.” left out
as §2

[1] = 5 μM peptide, LPS 100 ng/ml, 1 h
[2] = 20 μM peptide, LPS 100 ng/ml, 1 h

## RQIKIWFQNRRMKWKKENFLRDTWCNFQFY [TM6]
TLR4; [1]
  Effect on IL-1β and TNF-α mRNA (MyD88-dependent cytokines): not statistically significant
TLR4; 20 μM peptide
  LPS-induced transcriptional activation of IL-1β and IFN-β genes: blocked
  RANTES and IL-6 mRNA expression: profoundly suppressed
TLR4; [2]
  Expression of all cytokine genes: potently inhibited
TLR4; 5 and 20 μM peptide, LPS 100 ng/ml, 1 h
  Induction of IFN-β and RANTES mRNA: effectively blocked
TLR4
  LPS-induced (TLR4-mediated) cytokine mRNA expression: potently inhibited; also recorded: inhibit
TLR2/TLR1 heterodimer
  P3C-induced TNFα and IL-1β mRNA: did not inhibit
TLR2/TLR6 heterodimer
  P2C-induced TNFα and IL-1β mRNA: did not inhibit

## RQIKIWFQNRRMKWKKIVFAEMPCGRLHLQ [TM4]
TLR4; [1]
  mRNA expression of all cytokines examined: significantly decreased
TLR4; 20 μM peptide
  RANTES and IL-6 mRNA expression: profoundly suppressed
TLR4; [2]
  Expression of all cytokine genes: potently inhibited
TLR4
  LPS-induced (TLR4-mediated) cytokine mRNA expression: potently inhibited; also recorded: inhibit
TLR2/TLR1 heterodimer
  P3C-induced TNFα and IL-1β mRNA: did not inhibit
TLR2/TLR6 heterodimer
  P2C-induced TNFα and IL-1β mRNA: did not inhibit
